According to patent publication US20060272039A1:
Results are given in words; binding and its absence hold for the method and conditions named. Binding seen in cells or lysates may run through a third protein. Some binding calls cover weakened binding; strength is not graded here. Tags and fused reporters may be left off the sequences shown.

Protein sequences, listed by entry. Tags and fused reporters are not part of them.
UniProt Q8WQG9: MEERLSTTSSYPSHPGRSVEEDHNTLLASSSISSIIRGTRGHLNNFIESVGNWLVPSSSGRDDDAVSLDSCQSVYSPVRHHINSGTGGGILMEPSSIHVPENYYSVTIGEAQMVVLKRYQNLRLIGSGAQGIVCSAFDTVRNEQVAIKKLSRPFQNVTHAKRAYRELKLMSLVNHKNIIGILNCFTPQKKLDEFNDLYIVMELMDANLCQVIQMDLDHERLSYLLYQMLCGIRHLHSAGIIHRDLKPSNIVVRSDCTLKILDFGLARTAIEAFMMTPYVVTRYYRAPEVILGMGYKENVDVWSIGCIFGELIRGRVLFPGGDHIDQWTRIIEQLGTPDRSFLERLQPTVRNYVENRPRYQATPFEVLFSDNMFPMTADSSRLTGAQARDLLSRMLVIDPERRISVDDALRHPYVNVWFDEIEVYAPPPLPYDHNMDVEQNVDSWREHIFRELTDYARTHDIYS

Assays:
[1] = molecular target: T1, Flag-tagged DAF-16 (C. elegans) (UniProt O16850); assay: co-immunoprecipitation from lysates of co-transfected COS-7 cells; IP with anti-Xpress, immunoblot with anti-Flag
T1 sequence (looked up): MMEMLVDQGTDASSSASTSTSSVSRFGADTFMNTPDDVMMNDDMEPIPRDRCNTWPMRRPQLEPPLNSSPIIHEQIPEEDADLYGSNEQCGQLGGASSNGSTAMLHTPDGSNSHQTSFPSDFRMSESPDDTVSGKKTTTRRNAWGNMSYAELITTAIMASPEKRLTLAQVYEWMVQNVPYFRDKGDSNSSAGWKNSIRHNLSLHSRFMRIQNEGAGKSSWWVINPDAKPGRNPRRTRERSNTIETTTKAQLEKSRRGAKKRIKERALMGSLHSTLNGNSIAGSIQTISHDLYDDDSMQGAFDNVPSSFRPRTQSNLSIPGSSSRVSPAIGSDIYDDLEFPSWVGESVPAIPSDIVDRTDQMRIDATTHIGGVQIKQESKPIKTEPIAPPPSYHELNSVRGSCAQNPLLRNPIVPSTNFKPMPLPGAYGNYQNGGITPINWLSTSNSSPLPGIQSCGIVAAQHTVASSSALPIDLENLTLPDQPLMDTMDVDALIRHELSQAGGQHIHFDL

[2] = molecular target: T1, Flag-tagged DAF-16 (C. elegans); assay: co-immunoprecipitation from lysates of co-transfected COS-7 cells; IP with anti-Xpress, immunoblot with anti-Flag (legend of FIG. 20A)

- binding [1]: binds
- binding [2]: binds
Substance: Xpress-tagged JNK-1 (from UniProt Q8WQG9 1-463) (enzyme)
